Results from the supplement of paper PMC10849652.
Some of the results follow.

By UniProt entry, the sequences of proteins in these tests, tags left out. Where a name states a change or a piece, a line headed by the entry shows the natural chain unless it says otherwise.
UniProt P00367: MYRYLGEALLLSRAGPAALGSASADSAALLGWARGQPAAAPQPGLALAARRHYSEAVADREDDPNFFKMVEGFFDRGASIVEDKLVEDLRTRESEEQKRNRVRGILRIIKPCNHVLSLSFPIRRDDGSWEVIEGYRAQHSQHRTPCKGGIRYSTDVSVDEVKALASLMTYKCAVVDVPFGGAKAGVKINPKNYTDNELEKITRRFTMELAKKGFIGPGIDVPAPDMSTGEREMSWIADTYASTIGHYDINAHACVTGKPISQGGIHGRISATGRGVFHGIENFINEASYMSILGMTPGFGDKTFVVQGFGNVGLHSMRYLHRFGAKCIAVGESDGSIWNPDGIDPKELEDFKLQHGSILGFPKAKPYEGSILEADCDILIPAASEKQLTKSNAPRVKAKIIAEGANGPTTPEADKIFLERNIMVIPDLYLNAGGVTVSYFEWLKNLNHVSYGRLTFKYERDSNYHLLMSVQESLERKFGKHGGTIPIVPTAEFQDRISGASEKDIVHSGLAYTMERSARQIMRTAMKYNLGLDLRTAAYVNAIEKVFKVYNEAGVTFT
UniProt P60983, whole entry, looked up: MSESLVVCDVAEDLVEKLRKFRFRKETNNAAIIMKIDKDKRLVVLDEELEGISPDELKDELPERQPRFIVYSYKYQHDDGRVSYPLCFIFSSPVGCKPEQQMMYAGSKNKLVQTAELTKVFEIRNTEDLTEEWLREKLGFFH
UniProt Q9H4A6: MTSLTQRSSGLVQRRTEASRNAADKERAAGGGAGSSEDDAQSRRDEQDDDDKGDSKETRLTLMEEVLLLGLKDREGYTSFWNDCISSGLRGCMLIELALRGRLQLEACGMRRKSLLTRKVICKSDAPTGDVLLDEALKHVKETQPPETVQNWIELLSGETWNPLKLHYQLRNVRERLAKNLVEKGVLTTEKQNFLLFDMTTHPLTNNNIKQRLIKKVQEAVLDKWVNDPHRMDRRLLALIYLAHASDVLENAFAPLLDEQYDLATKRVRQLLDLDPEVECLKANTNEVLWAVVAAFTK
UniProt Q86UL3: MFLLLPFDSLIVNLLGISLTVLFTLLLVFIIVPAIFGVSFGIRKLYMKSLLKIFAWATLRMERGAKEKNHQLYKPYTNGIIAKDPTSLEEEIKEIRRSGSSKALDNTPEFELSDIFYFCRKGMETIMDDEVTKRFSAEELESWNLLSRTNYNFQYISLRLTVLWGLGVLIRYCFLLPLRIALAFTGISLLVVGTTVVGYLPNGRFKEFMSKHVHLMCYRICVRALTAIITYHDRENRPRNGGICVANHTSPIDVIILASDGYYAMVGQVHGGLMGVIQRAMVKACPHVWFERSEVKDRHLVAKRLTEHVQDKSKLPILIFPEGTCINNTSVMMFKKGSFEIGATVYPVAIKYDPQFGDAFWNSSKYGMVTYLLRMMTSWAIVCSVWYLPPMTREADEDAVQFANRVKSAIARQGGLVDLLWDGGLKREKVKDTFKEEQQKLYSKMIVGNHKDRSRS
UniProt Q8N2G8: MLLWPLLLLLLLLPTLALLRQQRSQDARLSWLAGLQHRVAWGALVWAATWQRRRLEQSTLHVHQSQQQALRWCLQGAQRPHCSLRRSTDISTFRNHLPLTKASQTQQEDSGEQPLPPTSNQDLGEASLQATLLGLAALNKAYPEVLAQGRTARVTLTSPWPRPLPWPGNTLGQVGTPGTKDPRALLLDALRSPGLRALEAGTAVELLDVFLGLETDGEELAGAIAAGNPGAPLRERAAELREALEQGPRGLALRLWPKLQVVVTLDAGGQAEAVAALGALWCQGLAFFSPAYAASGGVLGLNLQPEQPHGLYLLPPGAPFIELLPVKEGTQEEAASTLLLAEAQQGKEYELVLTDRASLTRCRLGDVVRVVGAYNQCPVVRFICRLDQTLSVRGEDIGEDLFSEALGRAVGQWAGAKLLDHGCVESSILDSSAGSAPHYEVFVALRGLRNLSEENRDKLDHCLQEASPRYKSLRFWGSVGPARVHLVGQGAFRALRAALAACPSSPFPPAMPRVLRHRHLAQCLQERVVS
UniProt P29992, whole entry, looked up: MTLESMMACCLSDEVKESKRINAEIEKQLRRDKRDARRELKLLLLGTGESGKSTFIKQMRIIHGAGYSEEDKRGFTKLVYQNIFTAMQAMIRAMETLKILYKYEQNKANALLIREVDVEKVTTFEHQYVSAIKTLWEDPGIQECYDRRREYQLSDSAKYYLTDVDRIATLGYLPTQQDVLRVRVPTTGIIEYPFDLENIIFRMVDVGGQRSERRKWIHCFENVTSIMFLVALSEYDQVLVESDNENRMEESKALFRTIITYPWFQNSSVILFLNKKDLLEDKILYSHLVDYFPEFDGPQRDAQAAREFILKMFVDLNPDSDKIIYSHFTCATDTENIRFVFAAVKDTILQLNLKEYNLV
UniProt Q9BRT9, whole entry, looked up: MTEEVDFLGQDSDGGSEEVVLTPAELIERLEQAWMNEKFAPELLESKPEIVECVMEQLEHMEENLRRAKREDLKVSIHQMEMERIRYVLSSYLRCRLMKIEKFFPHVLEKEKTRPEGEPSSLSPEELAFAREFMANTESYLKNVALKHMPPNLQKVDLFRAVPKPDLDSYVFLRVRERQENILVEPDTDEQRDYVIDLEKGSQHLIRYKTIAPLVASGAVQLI
UniProt Q13439: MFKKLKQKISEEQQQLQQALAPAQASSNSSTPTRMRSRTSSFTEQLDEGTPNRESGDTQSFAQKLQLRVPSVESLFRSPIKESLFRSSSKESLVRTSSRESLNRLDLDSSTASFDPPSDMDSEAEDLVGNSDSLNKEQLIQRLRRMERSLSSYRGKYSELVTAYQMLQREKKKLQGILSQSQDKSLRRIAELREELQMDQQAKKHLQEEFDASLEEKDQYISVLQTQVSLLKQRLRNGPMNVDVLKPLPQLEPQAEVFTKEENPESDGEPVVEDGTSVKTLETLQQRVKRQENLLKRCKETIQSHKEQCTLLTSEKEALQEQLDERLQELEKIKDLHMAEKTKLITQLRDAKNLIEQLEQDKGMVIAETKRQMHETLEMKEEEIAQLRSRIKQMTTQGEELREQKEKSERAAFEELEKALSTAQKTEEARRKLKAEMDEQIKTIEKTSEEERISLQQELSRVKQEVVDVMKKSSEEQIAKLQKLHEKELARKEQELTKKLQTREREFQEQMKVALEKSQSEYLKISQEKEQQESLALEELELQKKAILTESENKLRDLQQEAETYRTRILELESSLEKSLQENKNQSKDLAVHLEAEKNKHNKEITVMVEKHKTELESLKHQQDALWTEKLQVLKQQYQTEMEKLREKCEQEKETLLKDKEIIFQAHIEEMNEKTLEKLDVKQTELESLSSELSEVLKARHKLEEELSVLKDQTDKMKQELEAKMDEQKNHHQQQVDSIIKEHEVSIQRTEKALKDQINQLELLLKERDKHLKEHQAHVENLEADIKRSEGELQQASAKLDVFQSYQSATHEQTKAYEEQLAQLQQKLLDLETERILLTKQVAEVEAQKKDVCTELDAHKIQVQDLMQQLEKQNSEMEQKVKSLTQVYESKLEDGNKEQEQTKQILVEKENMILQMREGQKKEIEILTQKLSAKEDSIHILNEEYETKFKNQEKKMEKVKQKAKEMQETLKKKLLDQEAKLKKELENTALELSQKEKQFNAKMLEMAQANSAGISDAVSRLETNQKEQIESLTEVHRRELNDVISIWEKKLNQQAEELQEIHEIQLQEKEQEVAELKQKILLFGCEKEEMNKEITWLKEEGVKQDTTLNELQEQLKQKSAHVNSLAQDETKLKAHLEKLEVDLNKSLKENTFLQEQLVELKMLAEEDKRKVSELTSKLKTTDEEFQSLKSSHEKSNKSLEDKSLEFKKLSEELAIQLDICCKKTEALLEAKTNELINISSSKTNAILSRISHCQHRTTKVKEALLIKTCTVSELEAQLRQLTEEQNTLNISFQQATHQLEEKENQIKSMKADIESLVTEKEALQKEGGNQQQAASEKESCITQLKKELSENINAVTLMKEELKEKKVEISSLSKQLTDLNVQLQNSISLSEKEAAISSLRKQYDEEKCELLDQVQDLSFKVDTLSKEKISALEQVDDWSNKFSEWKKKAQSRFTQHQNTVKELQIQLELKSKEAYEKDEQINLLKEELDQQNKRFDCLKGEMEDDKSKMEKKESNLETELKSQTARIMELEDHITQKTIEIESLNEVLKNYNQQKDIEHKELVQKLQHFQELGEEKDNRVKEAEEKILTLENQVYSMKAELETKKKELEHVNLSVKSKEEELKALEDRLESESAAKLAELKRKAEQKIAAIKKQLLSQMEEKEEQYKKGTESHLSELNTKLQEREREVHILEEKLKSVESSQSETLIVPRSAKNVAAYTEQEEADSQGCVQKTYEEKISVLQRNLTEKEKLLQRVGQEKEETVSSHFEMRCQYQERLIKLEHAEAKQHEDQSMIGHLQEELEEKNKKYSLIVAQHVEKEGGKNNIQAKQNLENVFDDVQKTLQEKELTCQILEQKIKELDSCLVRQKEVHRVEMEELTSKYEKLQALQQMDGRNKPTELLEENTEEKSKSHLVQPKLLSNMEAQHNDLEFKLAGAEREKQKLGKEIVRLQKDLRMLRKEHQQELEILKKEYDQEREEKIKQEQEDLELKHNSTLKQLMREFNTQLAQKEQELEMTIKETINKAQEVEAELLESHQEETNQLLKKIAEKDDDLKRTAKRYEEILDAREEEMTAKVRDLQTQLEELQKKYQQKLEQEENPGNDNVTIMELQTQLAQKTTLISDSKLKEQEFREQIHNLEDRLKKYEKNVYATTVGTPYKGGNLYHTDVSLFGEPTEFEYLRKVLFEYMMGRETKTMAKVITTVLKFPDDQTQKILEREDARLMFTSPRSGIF
UniProt Q9HC38: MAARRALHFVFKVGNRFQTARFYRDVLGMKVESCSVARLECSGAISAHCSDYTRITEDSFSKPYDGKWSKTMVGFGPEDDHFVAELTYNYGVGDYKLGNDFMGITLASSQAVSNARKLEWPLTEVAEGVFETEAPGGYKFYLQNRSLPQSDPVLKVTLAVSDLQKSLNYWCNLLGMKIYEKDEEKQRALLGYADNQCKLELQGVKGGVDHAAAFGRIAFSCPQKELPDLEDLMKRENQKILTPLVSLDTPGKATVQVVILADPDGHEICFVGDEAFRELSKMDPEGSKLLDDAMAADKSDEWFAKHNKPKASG
UniProt Q9NPB8: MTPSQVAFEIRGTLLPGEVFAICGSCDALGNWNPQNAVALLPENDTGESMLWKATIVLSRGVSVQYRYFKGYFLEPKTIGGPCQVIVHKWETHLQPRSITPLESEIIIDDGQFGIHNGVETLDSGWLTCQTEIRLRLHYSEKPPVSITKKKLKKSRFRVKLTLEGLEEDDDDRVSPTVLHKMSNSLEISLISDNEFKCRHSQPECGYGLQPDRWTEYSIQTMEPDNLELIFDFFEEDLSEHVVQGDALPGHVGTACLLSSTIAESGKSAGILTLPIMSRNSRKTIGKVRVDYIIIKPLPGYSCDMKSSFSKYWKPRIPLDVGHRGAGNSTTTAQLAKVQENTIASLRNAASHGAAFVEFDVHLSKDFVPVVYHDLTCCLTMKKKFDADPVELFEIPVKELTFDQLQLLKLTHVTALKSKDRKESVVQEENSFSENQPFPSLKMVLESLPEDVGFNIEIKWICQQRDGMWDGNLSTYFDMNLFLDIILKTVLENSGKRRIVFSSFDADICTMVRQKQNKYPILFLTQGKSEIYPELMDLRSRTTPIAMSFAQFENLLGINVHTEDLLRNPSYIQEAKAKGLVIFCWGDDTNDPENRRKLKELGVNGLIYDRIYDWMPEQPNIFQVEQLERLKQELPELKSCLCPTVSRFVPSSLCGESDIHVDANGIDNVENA
UniProt Q9P2T1: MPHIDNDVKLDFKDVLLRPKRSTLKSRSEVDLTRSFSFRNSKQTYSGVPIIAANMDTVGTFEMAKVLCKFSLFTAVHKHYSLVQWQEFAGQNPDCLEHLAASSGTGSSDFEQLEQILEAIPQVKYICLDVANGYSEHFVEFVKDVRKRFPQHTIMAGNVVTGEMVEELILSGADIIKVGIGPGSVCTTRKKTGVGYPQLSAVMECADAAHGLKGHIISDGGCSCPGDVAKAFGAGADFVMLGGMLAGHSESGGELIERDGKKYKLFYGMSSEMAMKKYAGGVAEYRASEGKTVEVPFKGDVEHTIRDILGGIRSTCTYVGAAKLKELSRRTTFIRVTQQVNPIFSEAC
UniProt P06280: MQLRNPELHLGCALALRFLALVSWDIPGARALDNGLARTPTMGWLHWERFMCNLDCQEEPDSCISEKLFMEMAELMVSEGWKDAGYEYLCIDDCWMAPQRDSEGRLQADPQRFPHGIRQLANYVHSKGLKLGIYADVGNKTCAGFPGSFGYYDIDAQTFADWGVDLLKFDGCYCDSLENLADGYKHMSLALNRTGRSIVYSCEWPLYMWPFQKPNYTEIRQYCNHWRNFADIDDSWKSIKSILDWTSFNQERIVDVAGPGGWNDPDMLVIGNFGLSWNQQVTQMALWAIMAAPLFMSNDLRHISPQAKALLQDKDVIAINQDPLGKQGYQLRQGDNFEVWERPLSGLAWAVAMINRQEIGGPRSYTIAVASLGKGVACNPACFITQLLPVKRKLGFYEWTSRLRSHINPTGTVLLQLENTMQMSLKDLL

Columns and labels:
Test in all cases: log2 fold change, soluble protein after heating vs DMSO (PISA); higher = thermal stabilisation; K562 lysate, 10 uM; active = over 0.2 and 3.5 SD of the protein, either way, in both replicates (recomputed)
[1] = compound: NCC(=O)Nc1ccc(-n2nc(C(F)(F)F)cc2-c2ccc3c(ccc4ccccc43)c2)cc1
In short: (§1)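 Thermal stability, expressed as log-two fold change relative to solvent controls, is given from duplicates. Crude K562 extract in PBS pH 7.4 with 1 mM MgCl2, at 1 mg/mL protein, was treated with 10 μM compound for 30 min and heated in aliquots for 3 min across 48°C-58°C. After pooling, adjustment to 0.5% NP-40 at 4°C and centrifugation at 21,000xg for 90 min, supernatant protein was measured by TMTpro 16plex LC-MS/MS with channel sums equalised.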

vorinostat = compound: O=C(CCCCCCC(=O)Nc1ccccc1)NO [vorinostat]
In short: as §1

silmitasertib = compound: O=C(O)c1ccc2c(c1)nc(Nc1cccc(Cl)c1)c1ccncc12 [silmitasertib]
In short: as §1

[2] = compound: O=C1NC(=O)C(c2cnc3ccccn23)=C1c1cn2c3c(cc(F)cc13)CN(C(=O)N1CCCCC1)CC2
In short: as §1

entospletinib = compound: c1cn2cc(-c3ccc4cn[nH]c4c3)nc(Nc3ccc(N4CCOCC4)cc3)c2n1 [entospletinib]
In short: as §1

Target | log2 fold change [1] | log2 fold change (vorinostat) | log2 fold change (silmitasertib) | log2 fold change [2] | log2 fold change (entospletinib)
GLUD1 (UniProt P00367) | inactive: -0.014 | inactive: 0.179 | inactive: -0.002 | inactive: -0.058 | inactive: 0.003
GLS isoform 3 (UniProt O94925) | inactive: 0.003 | inactive: -0.133 | inactive: 0.017 | inactive: 0.066 | inactive: 0.028
GPD2 (UniProt P43304) | inactive: 0 | inactive: 0.163 | inactive: -0.004 | inactive: -0.009 | inactive: -0.003
GM2A (UniProt P17900) | inactive: -0.065 | inactive: 0.169 | inactive: -0.034 | inactive: 0.045 | inactive: -0.052
GPBP1 isoform 2 (UniProt Q86WP2) | inactive: -0.005 | inactive: -0.102 | inactive: -0.028 | inactive: -0.033 | inactive: 0.053
GINS3 (UniProt Q9BRX5) | inactive: -0.054 | inactive: -0.078 | inactive: 0.058 | inactive: -0.025 | inactive: 0.004
GOPC (UniProt Q9HD26) | inactive: 0.005 | inactive: -0.134 | inactive: 0.023 | inactive: -0.014 | inactive: 0.006
GNG12 (UniProt Q9UBI6) | inactive: -0.13 | – | – | – | –
GLUL (UniProt P15104) | inactive: 0.008 | inactive: 0.13 | inactive: 0.006 | inactive: -0.096 | inactive: 0.116
GNAQ (UniProt P50148) | inactive: -0.005 | inactive: 0.094 | inactive: -0.038 | inactive: -0.017 | inactive: 0.049
GMFB (UniProt P60983) | inactive: -0.081 | inactive: 0.141 | inactive: -0.002 | inactive: -0.008 | inactive: -0.004
GLMN (UniProt Q92990) | inactive: -0.008 | inactive: -0.179 | inactive: 0.02 | inactive: -0.031 | inactive: 0.027
GGPS1 (UniProt O95749) | inactive: -0.041 | inactive: 0.113 | inactive: 0.019 | inactive: -0.016 | inactive: 0.007
GORAB (UniProt Q5T7V8) | inactive: -0.081 | inactive: -0.039 | inactive: -0.088 | inactive: 0.006 | inactive: -0.02
GOLGA2 (UniProt Q08379) | inactive: 0 | inactive: -0.089 | inactive: 0 | inactive: 0.003 | inactive: -0.002
GOSR1 (UniProt O95249) | inactive: -0.037 | inactive: 0.007 | inactive: 0.01 | inactive: -0.035 | inactive: 0
GPBP1L1 (UniProt Q9HC44) | inactive: 0.002 | inactive: -0.152 | inactive: 0.06 | inactive: -0.045 | inactive: -0.051
GOLPH3 (UniProt Q9H4A6) | inactive: -0.06 | inactive: -0.06 | inactive: -0.001 | inactive: 0.023 | inactive: 0.026
GOLPH3L (UniProt Q9H4A5) | inactive: -0.061 | inactive: -0.035 | inactive: -0.002 | inactive: 0.047 | inactive: 0.048
GPAT4 (UniProt Q86UL3) | inactive: 0.02 | inactive: 0.123 | inactive: 0.031 | inactive: -0.007 | inactive: 0
GGCT (UniProt O75223) | inactive: 0.004 | inactive: 0.124 | inactive: -0.017 | inactive: -0.016 | inactive: -0.014
GLMP (UniProt Q8WWB7) | inactive: 0.167 | inactive: 0.311 | inactive: 0.018 | inactive: -0.041 | inactive: 0.089
GPR108 (UniProt Q9NPR9) | inactive: -0.001 | inactive: -0.024 | inactive: 0.001 | inactive: -0.007 | inactive: -0.008
GPI (UniProt P06744) | inactive: 0.004 | inactive: 0.105 | inactive: 0.014 | inactive: -0.027 | inactive: 0.012
GPR107 isoform 2 (UniProt Q5VW38) | inactive: -0.015 | inactive: 0.072 | inactive: -0.031 | inactive: -0.023 | inactive: 0.004
GLRX5 (UniProt Q86SX6) | inactive: -0.005 | inactive: -0.087 | inactive: 0.062 | inactive: -0.081 | inactive: -0.087
GMEB2 (UniProt Q9UKD1) | inactive: 0.01 | inactive: 0.005 | inactive: -0.022 | inactive: 0.025 | inactive: -0.027

Target | log2 fold change [1] | log2 fold change (vorinostat) | log2 fold change (silmitasertib) | log2 fold change [2] | log2 fold change (entospletinib)
GOLGA6B (UniProt A6NDN3) | inactive: 0.019 | inactive: 0.117 | inactive: -0.002 | active: 0.353 | inactive: -0.084
GHDC (UniProt Q8N2G8) | inactive: -0.143 | inactive: -0.04 | inactive: -0.001 | inactive: 0.008 | inactive: -0.03
GNA11 (UniProt P29992) | inactive: 0.026 | inactive: 0.061 | inactive: 0.003 | inactive: -0.053 | inactive: -0.004
GPR89A (UniProt B7ZAQ6) | inactive: -0.025 | inactive: 0.086 | inactive: -0.047 | inactive: 0.047 | inactive: 0.081
GPS1 (UniProt A8K070) | inactive: -0.052 | inactive: 0.043 | inactive: -0.051 | inactive: 0.037 | inactive: 0.004
GINS4 (UniProt Q9BRT9) | inactive: -0.02 | inactive: 0.048 | inactive: -0.032 | inactive: -0.019 | inactive: -0.018
GPATCH4 isoform 3 (UniProt Q5T3I0) | inactive: 0.034 | inactive: -0.011 | inactive: -0.028 | inactive: -0.065 | inactive: 0.058
GP1BB isoform 2 (UniProt P13224) | inactive: -0.017 | inactive: 0.142 | inactive: 0.016 | inactive: -0.073 | inactive: -0.112
GID4 (UniProt Q8IVV7) | inactive: 0.063 | inactive: -0.126 | inactive: 0.078 | inactive: 0.008 | inactive: 0.073
GOLGA4 (UniProt Q13439) | inactive: 0.126 | inactive: -0.004 | inactive: 0.069 | inactive: 0.037 | inactive: -0.039
GMIP (UniProt Q9P107) | inactive: -0.018 | active: -0.302 | inactive: 0.058 | inactive: 0.021 | inactive: -0.038
GLYR1 (UniProt Q49A26) | inactive: -0.006 | inactive: -0.033 | inactive: -0.022 | inactive: -0.007 | inactive: -0.041
GMPR (UniProt P36959) | inactive: 0 | inactive: 0.144 | inactive: -0.006 | inactive: -0.017 | inactive: 0.03
GGA3 (UniProt Q9NZ52) | inactive: -0.062 | inactive: -0.08 | inactive: 0.007 | inactive: -0.008 | inactive: -0.005
GLOD4 isoform 2 (UniProt Q9HC38) | inactive: 0.027 | inactive: 0.077 | inactive: 0.029 | inactive: -0.046 | inactive: -0.003
GPCPD1 (UniProt Q9NPB8) | inactive: 0.061 | inactive: -0.189 | inactive: 0.025 | inactive: 0.063 | inactive: -0.008
GHITM (UniProt Q9H3K2) | inactive: -0.028 | inactive: 0.145 | inactive: -0.021 | inactive: 0.011 | inactive: 0.005
GPD1 (UniProt P21695) | inactive: 0.205 | inactive: 0.187 | inactive: -0.046 | inactive: 0.119 | inactive: -0.024
GORASP1 (UniProt Q9BQQ3) | inactive: -0.041 | inactive: -0.01 | inactive: 0.067 | inactive: -0.018 | inactive: -0.09
GIGYF1 (UniProt O75420) | inactive: 0.144 | inactive: -0.074 | inactive: 0.053 | inactive: -0.046 | inactive: -0.064
GNPDA1 (UniProt P46926) | inactive: -0.002 | inactive: 0.114 | inactive: 0.001 | inactive: 0.004 | inactive: -0.003
GOLGA3 (UniProt Q08378) | inactive: 0.003 | inactive: 0.029 | inactive: -0.007 | inactive: 0.003 | inactive: -0.005
GMPR2 isoform 2 (UniProt Q9P2T1) | inactive: 0.011 | inactive: 0.117 | inactive: -0.009 | inactive: 0.026 | inactive: -0.012
GON4L (UniProt Q3T8J9) | inactive: -0.051 | inactive: -0.162 | inactive: 0.066 | inactive: -0.076 | inactive: 0.067
GLA (UniProt P06280) | inactive: 0.004 | inactive: 0.045 | inactive: 0.028 | inactive: 0 | inactive: 0.032
GNE isoform 2 (UniProt Q9Y223) | inactive: 0.056 | active: -0.443 | inactive: 0.023 | inactive: 0.012 | inactive: 0.017

Four consecutive records already listed:
Target | log2 fold change [1] | log2 fold change (vorinostat) | log2 fold change (silmitasertib) | log2 fold change [2] | log2 fold change (entospletinib)
GPD1 (UniProt P21695) | inactive: 0.205 | inactive: 0.187 | inactive: -0.046 | inactive: 0.119 | inactive: -0.024
GORASP1 (UniProt Q9BQQ3) | inactive: -0.041 | inactive: -0.01 | inactive: 0.067 | inactive: -0.018 | inactive: -0.09
GIGYF1 (UniProt O75420) | inactive: 0.144 | inactive: -0.074 | inactive: 0.053 | inactive: -0.046 | inactive: -0.064
GNPDA1 (UniProt P46926) | inactive: -0.002 | inactive: 0.114 | inactive: 0.001 | inactive: 0.004 | inactive: -0.003
